Numbering of substitutions follows the chain as printed. Results are given in words; binding and its absence hold for the method and conditions named. Binding seen in cells or lysates may run through a third protein. A result given as binding can be weak or reduced; the word gives no strength. Sequences can lack the tags named with a protein.
Columns and labels:
[1] = biological target: T1, V5-tagged DHR1L C2 mutant (human (cDNA from HeLa cells)) (UniProt Q96N67); assay: proximity ligation; Duolink PLA between the V5 tag of an overexpressed Dock7 construct and an endogenous partner in fixed, serum-starved MDA-MB-231 cells (limit domains: after Dock7 knockdown)
T1 sequence: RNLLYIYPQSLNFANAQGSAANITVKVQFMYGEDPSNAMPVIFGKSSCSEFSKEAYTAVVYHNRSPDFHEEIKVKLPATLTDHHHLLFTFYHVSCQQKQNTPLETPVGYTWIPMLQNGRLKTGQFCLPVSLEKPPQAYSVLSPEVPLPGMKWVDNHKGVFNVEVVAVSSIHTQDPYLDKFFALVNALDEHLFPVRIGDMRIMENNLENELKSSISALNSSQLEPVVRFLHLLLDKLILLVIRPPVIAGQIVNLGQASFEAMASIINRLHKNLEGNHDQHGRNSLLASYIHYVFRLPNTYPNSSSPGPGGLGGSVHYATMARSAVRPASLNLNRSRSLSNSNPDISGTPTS

[2] = biological target: T2, V5-tagged DHR2 limit domain of Dock7 (human (cDNA from HeLa cells)) (UniProt Q96N67); assay: as above
T2 sequence: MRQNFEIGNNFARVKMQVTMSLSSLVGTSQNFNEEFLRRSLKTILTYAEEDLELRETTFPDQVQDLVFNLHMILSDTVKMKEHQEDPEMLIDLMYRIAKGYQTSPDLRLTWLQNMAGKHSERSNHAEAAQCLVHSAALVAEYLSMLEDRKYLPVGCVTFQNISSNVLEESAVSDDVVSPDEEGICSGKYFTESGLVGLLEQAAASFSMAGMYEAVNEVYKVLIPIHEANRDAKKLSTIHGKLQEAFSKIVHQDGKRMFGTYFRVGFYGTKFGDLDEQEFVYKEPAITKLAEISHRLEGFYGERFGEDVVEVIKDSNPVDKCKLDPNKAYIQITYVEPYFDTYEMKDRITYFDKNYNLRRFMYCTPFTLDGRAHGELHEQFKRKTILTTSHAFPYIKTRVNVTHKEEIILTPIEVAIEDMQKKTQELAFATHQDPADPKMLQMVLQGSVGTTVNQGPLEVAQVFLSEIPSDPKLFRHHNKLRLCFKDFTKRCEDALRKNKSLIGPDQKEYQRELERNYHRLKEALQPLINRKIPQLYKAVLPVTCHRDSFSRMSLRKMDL

[3] = biological target: T3, V5-tagged DHR1L (Dock7 DHR1 domain with a C-terminal 183 amino acid addition of the downstream linker region) (human (cDNA from HeLa cells)) (UniProt Q96N67); assay: co-IP; HEK-293T lysates (50 mM Hepes pH 8.0, 150 mM NaCl, 0.3% CHAPS); anti-Myc, HA, Flag or V5 antibody 2 h, then BSA-coated Protein G beads 1 h at 4°C; Western blot
T3 sequence: T1 sequence with A16R, A21R

[4] = biological target: T2, V5-tagged DHR2 limit domain of Dock7 (human (cDNA from HeLa cells)); assay: as above

| binding [1] | binding [2] | binding [3] | binding [4] | Substance |
| --- | --- | --- | --- | --- |
| binds | binds | – | – | endogenous AKT |
| – | – | binds | binds | Flag-tagged AKT |

— publication doi:10.1101/2023.01.03.522657
